Experimental data from the supplement of paper PMC10849652.
The list shows a part of the results.

Protein sequences, listed by entry. Tags and fused reporters are not part of them. Lines headed by an entry give the natural chain unless they say otherwise; changes in a name come on top.
UniProt P62699: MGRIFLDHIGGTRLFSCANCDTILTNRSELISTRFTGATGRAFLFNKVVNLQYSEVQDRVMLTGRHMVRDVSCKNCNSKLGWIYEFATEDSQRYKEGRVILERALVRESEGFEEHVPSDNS
UniProt Q8IUH5: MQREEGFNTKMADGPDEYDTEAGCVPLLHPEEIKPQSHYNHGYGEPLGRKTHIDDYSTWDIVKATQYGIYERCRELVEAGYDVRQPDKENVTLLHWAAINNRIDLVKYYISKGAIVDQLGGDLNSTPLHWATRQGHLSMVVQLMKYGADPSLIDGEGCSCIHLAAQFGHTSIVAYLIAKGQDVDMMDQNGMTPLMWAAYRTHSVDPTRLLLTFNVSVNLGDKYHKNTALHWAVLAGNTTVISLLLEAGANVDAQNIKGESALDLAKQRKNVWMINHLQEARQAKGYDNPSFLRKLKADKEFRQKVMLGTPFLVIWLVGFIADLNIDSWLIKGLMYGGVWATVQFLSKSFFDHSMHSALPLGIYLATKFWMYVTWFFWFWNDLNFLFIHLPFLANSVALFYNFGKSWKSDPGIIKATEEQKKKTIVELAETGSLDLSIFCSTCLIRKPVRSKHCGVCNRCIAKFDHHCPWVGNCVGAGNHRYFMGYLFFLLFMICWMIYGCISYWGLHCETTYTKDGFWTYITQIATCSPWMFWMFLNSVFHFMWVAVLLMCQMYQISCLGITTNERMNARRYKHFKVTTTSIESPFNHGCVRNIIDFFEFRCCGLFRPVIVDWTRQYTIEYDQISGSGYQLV
UniProt Q16600: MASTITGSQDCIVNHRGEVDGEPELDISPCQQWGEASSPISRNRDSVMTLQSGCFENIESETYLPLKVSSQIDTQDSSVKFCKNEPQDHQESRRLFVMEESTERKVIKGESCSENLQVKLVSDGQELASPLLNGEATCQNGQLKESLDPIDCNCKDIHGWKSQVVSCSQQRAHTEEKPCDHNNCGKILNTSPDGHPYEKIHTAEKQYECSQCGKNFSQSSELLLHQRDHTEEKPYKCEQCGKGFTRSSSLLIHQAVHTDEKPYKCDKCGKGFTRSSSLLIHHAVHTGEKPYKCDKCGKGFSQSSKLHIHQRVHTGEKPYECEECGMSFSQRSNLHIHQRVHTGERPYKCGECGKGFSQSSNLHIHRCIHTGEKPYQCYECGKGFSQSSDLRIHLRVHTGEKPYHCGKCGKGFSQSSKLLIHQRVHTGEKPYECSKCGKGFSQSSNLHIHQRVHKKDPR
UniProt P13010: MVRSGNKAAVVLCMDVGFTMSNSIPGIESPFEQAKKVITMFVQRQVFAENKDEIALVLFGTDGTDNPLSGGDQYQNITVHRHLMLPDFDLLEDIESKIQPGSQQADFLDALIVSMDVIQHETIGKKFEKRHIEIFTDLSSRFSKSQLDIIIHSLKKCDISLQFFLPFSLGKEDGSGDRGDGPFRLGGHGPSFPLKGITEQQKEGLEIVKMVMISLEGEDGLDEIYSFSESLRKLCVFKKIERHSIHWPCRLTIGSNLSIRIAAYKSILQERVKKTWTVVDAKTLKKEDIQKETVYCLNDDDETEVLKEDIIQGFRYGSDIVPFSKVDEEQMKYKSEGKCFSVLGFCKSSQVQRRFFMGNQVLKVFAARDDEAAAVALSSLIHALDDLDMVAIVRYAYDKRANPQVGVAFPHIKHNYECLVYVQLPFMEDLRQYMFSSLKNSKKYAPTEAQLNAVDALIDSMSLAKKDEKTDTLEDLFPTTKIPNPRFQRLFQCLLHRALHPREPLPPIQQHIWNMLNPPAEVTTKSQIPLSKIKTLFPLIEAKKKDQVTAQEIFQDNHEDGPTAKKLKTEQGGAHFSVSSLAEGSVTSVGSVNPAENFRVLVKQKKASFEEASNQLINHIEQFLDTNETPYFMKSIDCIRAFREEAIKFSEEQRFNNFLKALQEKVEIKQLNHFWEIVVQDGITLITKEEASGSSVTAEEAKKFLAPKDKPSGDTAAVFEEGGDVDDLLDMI
UniProt P52747: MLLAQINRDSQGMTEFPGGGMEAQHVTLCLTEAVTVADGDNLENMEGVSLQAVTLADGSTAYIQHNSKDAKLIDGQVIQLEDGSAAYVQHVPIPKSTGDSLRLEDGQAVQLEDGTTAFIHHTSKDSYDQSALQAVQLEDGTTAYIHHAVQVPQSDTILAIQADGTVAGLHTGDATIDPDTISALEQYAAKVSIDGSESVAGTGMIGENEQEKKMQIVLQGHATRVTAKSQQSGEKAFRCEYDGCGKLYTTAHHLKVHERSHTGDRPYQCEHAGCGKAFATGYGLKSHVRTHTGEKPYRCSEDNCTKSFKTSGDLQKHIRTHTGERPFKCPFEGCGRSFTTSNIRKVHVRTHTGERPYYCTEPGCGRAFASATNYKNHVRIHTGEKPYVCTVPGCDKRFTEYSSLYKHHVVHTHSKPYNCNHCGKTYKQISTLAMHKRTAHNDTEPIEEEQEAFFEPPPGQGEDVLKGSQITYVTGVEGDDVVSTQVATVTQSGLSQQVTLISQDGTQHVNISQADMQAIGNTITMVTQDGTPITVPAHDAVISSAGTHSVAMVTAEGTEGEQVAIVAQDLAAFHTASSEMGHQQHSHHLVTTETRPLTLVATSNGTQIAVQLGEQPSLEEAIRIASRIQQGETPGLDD
UniProt P61981: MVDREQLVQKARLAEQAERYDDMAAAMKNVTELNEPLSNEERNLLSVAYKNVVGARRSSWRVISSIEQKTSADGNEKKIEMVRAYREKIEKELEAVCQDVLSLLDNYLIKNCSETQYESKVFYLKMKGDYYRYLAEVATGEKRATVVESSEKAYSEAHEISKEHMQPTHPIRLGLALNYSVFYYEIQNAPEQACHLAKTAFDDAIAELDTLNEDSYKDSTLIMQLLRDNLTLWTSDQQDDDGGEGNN
UniProt Q8N5P1: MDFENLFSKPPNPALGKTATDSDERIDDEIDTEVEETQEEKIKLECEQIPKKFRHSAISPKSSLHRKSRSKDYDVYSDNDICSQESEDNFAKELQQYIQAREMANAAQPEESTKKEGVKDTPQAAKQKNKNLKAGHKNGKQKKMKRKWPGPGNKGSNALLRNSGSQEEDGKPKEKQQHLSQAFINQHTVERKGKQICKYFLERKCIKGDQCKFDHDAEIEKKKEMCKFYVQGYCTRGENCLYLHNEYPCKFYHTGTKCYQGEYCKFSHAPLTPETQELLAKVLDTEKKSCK
UniProt Q96TA2: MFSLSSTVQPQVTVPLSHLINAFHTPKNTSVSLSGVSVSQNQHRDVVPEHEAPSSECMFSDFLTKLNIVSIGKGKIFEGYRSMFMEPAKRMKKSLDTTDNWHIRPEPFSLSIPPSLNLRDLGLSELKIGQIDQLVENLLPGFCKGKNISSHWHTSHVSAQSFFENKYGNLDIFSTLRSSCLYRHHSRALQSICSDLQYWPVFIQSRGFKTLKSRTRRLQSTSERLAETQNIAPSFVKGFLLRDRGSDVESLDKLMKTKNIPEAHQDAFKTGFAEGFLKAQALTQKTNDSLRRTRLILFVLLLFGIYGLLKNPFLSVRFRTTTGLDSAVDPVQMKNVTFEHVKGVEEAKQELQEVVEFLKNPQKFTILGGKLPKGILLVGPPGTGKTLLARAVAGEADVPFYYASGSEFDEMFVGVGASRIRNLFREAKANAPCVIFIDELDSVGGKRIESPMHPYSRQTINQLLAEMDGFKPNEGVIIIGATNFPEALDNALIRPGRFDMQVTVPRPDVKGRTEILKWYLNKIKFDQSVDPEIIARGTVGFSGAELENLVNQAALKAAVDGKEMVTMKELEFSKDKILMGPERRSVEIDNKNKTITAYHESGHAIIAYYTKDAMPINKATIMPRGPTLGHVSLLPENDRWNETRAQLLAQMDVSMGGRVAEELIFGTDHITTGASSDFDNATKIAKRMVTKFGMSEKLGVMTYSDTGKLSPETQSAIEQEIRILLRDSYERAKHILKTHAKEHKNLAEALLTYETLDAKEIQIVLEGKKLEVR
UniProt Q9NRH1: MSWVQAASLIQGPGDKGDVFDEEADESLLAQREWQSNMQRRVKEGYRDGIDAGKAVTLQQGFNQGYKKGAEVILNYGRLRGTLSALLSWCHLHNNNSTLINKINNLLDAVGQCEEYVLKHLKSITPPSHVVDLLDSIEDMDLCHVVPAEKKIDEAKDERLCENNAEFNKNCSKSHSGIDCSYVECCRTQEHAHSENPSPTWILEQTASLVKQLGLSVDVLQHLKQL
UniProt P31946: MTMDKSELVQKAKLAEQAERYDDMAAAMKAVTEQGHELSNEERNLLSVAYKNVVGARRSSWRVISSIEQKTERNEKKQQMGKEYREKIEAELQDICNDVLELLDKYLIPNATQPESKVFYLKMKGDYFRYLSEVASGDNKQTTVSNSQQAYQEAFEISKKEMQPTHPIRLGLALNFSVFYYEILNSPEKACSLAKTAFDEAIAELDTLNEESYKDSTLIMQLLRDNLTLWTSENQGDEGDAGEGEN
UniProt Q96NC0: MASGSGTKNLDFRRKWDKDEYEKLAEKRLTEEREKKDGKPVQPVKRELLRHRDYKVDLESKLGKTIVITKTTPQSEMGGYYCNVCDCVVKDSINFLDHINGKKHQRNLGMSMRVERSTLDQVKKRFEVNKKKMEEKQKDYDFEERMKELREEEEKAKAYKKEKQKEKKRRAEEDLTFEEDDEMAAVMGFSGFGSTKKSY
UniProt Q96JP5: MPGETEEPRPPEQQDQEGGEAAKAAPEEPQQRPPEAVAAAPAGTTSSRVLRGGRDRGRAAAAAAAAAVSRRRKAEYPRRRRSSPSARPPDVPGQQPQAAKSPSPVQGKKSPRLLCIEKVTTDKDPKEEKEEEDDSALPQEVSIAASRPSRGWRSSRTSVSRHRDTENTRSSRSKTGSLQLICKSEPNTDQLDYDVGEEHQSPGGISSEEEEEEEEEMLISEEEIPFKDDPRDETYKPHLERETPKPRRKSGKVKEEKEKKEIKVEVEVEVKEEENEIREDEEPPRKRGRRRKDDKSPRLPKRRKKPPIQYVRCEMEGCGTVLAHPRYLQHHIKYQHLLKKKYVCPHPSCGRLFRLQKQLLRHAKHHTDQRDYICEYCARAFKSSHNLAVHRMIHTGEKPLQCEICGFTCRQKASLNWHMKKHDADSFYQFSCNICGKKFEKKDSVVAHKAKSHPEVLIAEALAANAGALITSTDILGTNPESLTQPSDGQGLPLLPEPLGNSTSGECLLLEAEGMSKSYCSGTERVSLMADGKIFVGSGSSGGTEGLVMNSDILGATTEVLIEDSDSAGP
UniProt O14980, whole entry, looked up: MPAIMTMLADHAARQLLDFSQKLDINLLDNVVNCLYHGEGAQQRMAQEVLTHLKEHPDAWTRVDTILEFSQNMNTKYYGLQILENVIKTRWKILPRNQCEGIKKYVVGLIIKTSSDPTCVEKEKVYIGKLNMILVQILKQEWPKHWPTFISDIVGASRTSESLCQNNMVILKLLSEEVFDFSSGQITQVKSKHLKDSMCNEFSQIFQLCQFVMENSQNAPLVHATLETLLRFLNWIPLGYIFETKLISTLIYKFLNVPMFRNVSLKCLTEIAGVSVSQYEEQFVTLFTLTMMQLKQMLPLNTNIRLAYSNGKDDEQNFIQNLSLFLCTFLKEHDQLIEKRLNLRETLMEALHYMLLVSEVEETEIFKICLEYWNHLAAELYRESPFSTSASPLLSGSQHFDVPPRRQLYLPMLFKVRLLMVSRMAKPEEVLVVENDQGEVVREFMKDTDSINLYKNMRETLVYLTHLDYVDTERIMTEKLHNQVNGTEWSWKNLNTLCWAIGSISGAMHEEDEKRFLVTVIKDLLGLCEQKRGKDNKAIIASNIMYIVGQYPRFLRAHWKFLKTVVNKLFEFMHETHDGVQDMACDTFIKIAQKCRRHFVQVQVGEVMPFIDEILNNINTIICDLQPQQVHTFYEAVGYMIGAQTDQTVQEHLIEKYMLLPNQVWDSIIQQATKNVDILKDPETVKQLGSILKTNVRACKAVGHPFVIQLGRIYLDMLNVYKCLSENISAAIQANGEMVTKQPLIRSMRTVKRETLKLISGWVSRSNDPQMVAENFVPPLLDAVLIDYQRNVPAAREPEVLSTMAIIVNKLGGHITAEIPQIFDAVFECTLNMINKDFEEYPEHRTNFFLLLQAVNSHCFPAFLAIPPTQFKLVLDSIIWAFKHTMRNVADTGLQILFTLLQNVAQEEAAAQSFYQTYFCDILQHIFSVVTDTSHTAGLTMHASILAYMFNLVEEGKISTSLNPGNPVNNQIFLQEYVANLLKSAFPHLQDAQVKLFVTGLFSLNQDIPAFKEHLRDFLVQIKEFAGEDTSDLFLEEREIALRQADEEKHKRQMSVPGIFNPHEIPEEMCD
UniProt Q8N4Q0: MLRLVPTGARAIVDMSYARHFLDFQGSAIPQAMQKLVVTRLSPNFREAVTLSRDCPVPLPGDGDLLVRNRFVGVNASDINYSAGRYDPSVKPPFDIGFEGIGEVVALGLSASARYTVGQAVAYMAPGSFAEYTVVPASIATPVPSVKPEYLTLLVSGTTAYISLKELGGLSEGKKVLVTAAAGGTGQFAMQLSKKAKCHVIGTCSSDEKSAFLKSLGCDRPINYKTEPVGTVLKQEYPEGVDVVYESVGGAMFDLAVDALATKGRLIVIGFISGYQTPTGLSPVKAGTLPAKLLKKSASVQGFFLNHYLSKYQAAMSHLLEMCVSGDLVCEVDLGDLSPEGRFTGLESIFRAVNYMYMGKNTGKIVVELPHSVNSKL

Tests used:
Assay in all cases: log2 fold change, soluble protein after heating vs DMSO (PISA); higher = thermal stabilisation; K562 cells, 10 uM, 30 min; active = over 0.2 and 3.5 SD of the protein, either way, in both replicates (recomputed)
[1] = compound: COC1=CC=C(C=C1)CN2C=CC3=C2C=C(C=C3)C(=O)NO
Outline: (§1)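 K562 cells at 2×10^6 cells/mL were treated for 30 min with 10 μM compound, and aliquots were heated for 3 min over 48°C-58°C before pooling. Extraction used PBS with 0.5% NP-40 at 4°C, and soluble protein was the supernatant after 21,000xg for 90 min, measured by TMTpro 16plex LC-MS/MS with channel sums equalised. Thermal stability values, relative to control samples and from duplicates, are log2 fold changes.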

filanesib = compound: CON(C)C(=O)N1N=C(c2cc(F)ccc2F)S[C@@]1(CCCN)c1ccccc1 [filanesib]
Outline: as §1

zotarolimus = compound: CO[C@H]1C[C@@H]2CC[C@@H](C)[C@@](O)(O2)C(=O)C(=O)N2CCCC[C@H]2C(=O)O[C@H]([C@H](C)C[C@@H]2CC[C@H](n3cnnn3)[C@H](OC)C2)CC(=O)[C@H](C)/C=C(\C)[C@@H](O)[C@@H](OC)C(=O)[C@H](C)C[C@H](C)/C=C/C=C/C=C/1C [zotarolimus]
Outline: as §1

idasanutlin = compound: COc1cc(C(=O)O)ccc1NC(=O)[C@@H]1N[C@@H](CC(C)(C)C)[C@](C#N)(c2ccc(Cl)cc2F)[C@H]1c1cccc(Cl)c1F [idasanutlin]
Outline: as §1

alisertib = compound: COc1cc(Nc2ncc3c(n2)-c2ccc(Cl)cc2C(c2c(F)cccc2OC)=NC3)ccc1C(=O)O [alisertib]
Outline: as §1

[2] = compound: COc1cc2nc(-c3cc(F)ccc3O)nc(N[C@@H]3CNC[C@H]3C(C)(C)O)c2cc1OC
Outline: as §1

gefitinib = compound: COc1cc2ncnc(Nc3ccc(F)c(Cl)c3)c2cc1OCCCN1CCOCC1 [gefitinib]
Outline: as §1

[3] = compound: COc1cccc2cc(-c3nc([C@H]4CC[C@H](C(=O)O)CC4)n4ncnc(N)c34)[nH]c12
Outline: as §1

lapatinib = compound: CS(=O)(=O)CCNCc1ccc(-c2ccc3ncnc(Nc4ccc(OCc5cccc(F)c5)c(Cl)c4)c3c2)o1 [lapatinib]
Outline: as §1

pictilisib = compound: CS(=O)(=O)N1CCN(Cc2cc3nc(-c4cccc5[nH]ncc45)nc(N4CCOCC4)c3s2)CC1 [pictilisib]
Outline: as §1

[4] = compound: CS(=O)(=O)c1ccc(-c2cnc(N)c(C(=O)Nc3ccccc3)n2)cc1
Outline: as §1

crizotinib = compound: C[C@@H](Oc1cc(-c2cnn(C3CCNCC3)c2)cnc1N)c1c(Cl)ccc(F)c1Cl [crizotinib]
Outline: as §1

[5] = compound: C[C@@H]1COCCN1C2=NC(=NC(=C2)C3(CC3)S(=O)(=O)C)C4=C5C=CNC5=CC=C4
Outline: as §1

[6] = compound: C[C@H](C1=CC=C(C=C1)C(=O)NC2=C3C=CNC3=NC=C2)N
Outline: as §1

gandotinib = compound: Cc1cc(Nc2cc(CN3CCOCC3)c3nc(C)c(Cc4ccc(Cl)cc4F)n3n2)n[nH]1 [gandotinib]
Outline: as §1

[7] = compound: Cc1cc(SCc2sc(-c3ccc(C(F)(F)F)cc3)nc2C)ccc1OCC(=O)O
Outline: as §1

doramapimod = compound: Cc1ccc(-n2nc(C(C)(C)C)cc2NC(=O)Nc2ccc(OCCN3CCOCC3)c3ccccc23)cc1 [doramapimod]
Outline: as §1

ispinesib = compound: Cc1ccc(C(=O)N(CCCN)[C@@H](c2nc3cc(Cl)ccc3c(=O)n2Cc2ccccc2)C(C)C)cc1 [ispinesib]
Outline: as §1

duvelisib = compound: C[C@H](Nc1ncnc2nc[nH]c12)c1cc2cccc(Cl)c2c(=O)n1-c1ccccc1 [duvelisib]
Outline: as §1

tozasertib = compound: Cc1cc(Nc2cc(N3CCN(C)CC3)nc(Sc3ccc(NC(=O)C4CC4)cc3)n2)n[nH]1 [tozasertib]
Outline: as §1

Target | log2 fold change [1] | log2 fold change (filanesib) | log2 fold change (zotarolimus) | log2 fold change (idasanutlin) | log2 fold change (alisertib) | log2 fold change [2] | log2 fold change (gefitinib) | log2 fold change [3] | log2 fold change (lapatinib) | log2 fold change (pictilisib) | log2 fold change [4] | log2 fold change (crizotinib) | log2 fold change [5] | log2 fold change [6] | log2 fold change (gandotinib) | log2 fold change [7] | log2 fold change (doramapimod) | log2 fold change (ispinesib) | log2 fold change (duvelisib) | log2 fold change (tozasertib)
YPEL5 (UniProt P62699) | inactive: -0.269 | inactive: 0.413 | inactive: 0.05 | active: 0.491 | inactive: 0.086 | inactive: 0.096 | inactive: -0.239 | inactive: -0.142 | inactive: -0.113 | inactive: 0.172 | inactive: 0.152 | inactive: 0.019 | inactive: -0.079 | inactive: 0.163 | inactive: -0.095 | inactive: 0.098 | inactive: 0.039 | inactive: -0.039 | – | –
ZDHHC17 (UniProt Q8IUH5) | inactive: 0.137 | inactive: -0.219 | inactive: 0.039 | inactive: -0.048 | inactive: -0.02 | inactive: 0.029 | inactive: 0.04 | inactive: 0.003 | inactive: -0.022 | inactive: 0.021 | inactive: -0.005 | inactive: -0.064 | inactive: 0.005 | inactive: -0.03 | inactive: 0.052 | inactive: -0.04 | active: 0.264 | inactive: 0.023 | – | –
ZNF239 (UniProt Q16600) | inactive: -0.178 | inactive: 0.051 | inactive: -0.483 | inactive: -0.031 | inactive: -0.004 | inactive: 0.024 | inactive: -0.267 | inactive: 0.548 | inactive: -0.095 | inactive: -0.249 | inactive: -0.06 | inactive: -0.124 | inactive: -0.065 | inactive: 0.022 | inactive: -0.267 | inactive: -0.172 | inactive: 0.069 | inactive: -0.074 | – | –
XRCC5 (UniProt P13010) | inactive: 0.19 | inactive: -0.049 | inactive: 0.087 | inactive: 0.014 | inactive: 0.061 | inactive: -0.232 | inactive: 0.076 | inactive: -0.087 | inactive: 0.024 | inactive: -0.047 | inactive: 0.037 | inactive: -0.086 | inactive: 0.047 | inactive: 0.077 | inactive: -0.001 | inactive: 0.179 | inactive: 0.064 | inactive: -0.16 | – | –
ZNF143 (UniProt P52747) | inactive: -0.035 | inactive: 0.024 | inactive: 0.067 | inactive: 0.07 | inactive: -0.05 | inactive: -0.19 | inactive: -0.098 | inactive: 0.05 | inactive: -0.011 | inactive: -0.06 | inactive: -0.014 | inactive: -0.06 | inactive: -0.018 | inactive: -0.118 | inactive: 0.025 | inactive: 0.028 | inactive: 0.01 | inactive: -0.038 | – | –
YWHAG (UniProt P61981) | inactive: 0 | inactive: -0.019 | inactive: 0.022 | inactive: 0.03 | inactive: -0.074 | inactive: -0.045 | inactive: 0.002 | inactive: -0.047 | inactive: -0.008 | inactive: 0.014 | inactive: -0.012 | inactive: 0.035 | inactive: -0.033 | inactive: -0.058 | inactive: 0.045 | inactive: -0.016 | inactive: -0.027 | inactive: 0.09 | inactive: -0.079 | inactive: 0.023
ZC3H8 (UniProt Q8N5P1) | inactive: -0.128 | inactive: 0.191 | inactive: 0.029 | inactive: 0.109 | inactive: -0.082 | inactive: 0.05 | inactive: 0.021 | inactive: -0.02 | inactive: 0 | inactive: -0.007 | inactive: 0 | inactive: 0.089 | inactive: -0.151 | inactive: 0.218 | inactive: 0.15 | inactive: -0.039 | inactive: 0.038 | inactive: -0.016 | – | –
XRCC6 (UniProt P12956) | inactive: 0.006 | inactive: -0.021 | inactive: 0.058 | inactive: -0.059 | inactive: -0.014 | inactive: -0.097 | inactive: -0.01 | inactive: -0.008 | inactive: 0.013 | inactive: -0.024 | inactive: 0.013 | inactive: -0.064 | inactive: 0.088 | inactive: -0.042 | inactive: -0.149 | inactive: 0.091 | inactive: -0.05 | inactive: -0.039 | – | –
YME1L1 (UniProt Q96TA2) | inactive: -0.079 | inactive: 0.013 | inactive: -0.065 | inactive: 0.021 | inactive: -0.047 | inactive: -0.014 | inactive: 0.008 | inactive: 0.037 | inactive: -0.022 | inactive: -0.042 | inactive: -0.021 | inactive: -0.019 | inactive: -0.008 | inactive: 0.017 | inactive: 0.015 | inactive: -0.024 | inactive: 0.003 | inactive: -0.139 | inactive: 0 | inactive: -0.015
YLPM1 (UniProt P49750) | inactive: 0.018 | inactive: 0.083 | inactive: -0.001 | inactive: -0.026 | inactive: 0.017 | inactive: 0.1 | inactive: 0.002 | inactive: 0.053 | inactive: -0.028 | inactive: 0.065 | inactive: -0.051 | inactive: -0.08 | inactive: 0.015 | inactive: -0.037 | inactive: -0.117 | inactive: 0 | inactive: 0 | inactive: 0.034 | – | –
YAE1 (UniProt Q9NRH1) | inactive: 0.013 | inactive: 0.133 | inactive: 0 | inactive: 0.124 | inactive: -0.065 | inactive: 0.125 | inactive: -0.016 | inactive: 0.016 | inactive: -0.052 | inactive: 0.021 | inactive: 0.011 | inactive: -0.018 | inactive: -0.039 | inactive: 0.1 | inactive: 0.007 | inactive: 0.021 | inactive: -0.033 | inactive: 0.063 | – | –
YWHAB (UniProt P31946) | inactive: -0.028 | inactive: -0.044 | inactive: 0.015 | inactive: -0.053 | inactive: 0.012 | inactive: -0.062 | inactive: -0.001 | inactive: 0.014 | inactive: -0.016 | inactive: 0.002 | inactive: 0.017 | inactive: 0.017 | inactive: 0.025 | inactive: -0.065 | active: -0.25 | inactive: 0.005 | inactive: 0.022 | inactive: 0.053 | – | –
ZMAT2 (UniProt Q96NC0) | active: 0.378 | inactive: -0.084 | inactive: -0.034 | inactive: 0.061 | inactive: -0.045 | inactive: -0.028 | inactive: -0.021 | inactive: 0.071 | inactive: 0.016 | inactive: 0.01 | inactive: -0.127 | inactive: 0.098 | inactive: -0.022 | inactive: -0.012 | inactive: -0.014 | inactive: -0.048 | inactive: -0.024 | inactive: 0.042 | – | –
ZFP91 (UniProt Q96JP5) | inactive: -0.076 | inactive: 0.183 | inactive: -0.028 | inactive: 0.029 | inactive: -0.013 | inactive: -0.095 | inactive: 0.02 | inactive: -0.042 | inactive: 0.173 | inactive: -0.07 | inactive: -0.072 | inactive: 0 | inactive: -0.124 | inactive: 0.154 | inactive: 0.214 | inactive: 0.042 | inactive: 0.109 | inactive: -0.227 | – | –
XPO1 (UniProt O14980) | inactive: 0.074 | inactive: -0.121 | inactive: 0.004 | inactive: -0.123 | inactive: -0.003 | inactive: 0.023 | inactive: -0.032 | inactive: 0.001 | inactive: -0.023 | inactive: -0.071 | inactive: -0.016 | inactive: -0.138 | inactive: 0.089 | inactive: 0.006 | inactive: -0.223 | inactive: 0.094 | inactive: -0.034 | inactive: -0.081 | – | –
ZADH2 (UniProt Q8N4Q0) | inactive: 0.008 | inactive: 0.065 | inactive: 0.07 | inactive: -0.235 | inactive: 0.021 | inactive: 0.045 | inactive: -0.029 | inactive: -0.059 | inactive: -0.049 | inactive: 0.14 | inactive: -0.063 | inactive: 0.127 | inactive: 0.22 | inactive: -0.071 | inactive: 0.128 | inactive: -0.027 | inactive: -0.013 | inactive: -0.107 | – | –
ZMIZ1 (UniProt Q9ULJ6) | inactive: -0.009 | inactive: -0.003 | inactive: -0.037 | inactive: -0.048 | inactive: -0.031 | inactive: 0.069 | inactive: 0.125 | inactive: 0.063 | inactive: -0.021 | inactive: 0.04 | inactive: 0.005 | inactive: 0 | inactive: 0.017 | inactive: 0.022 | inactive: -0.028 | inactive: 0.038 | inactive: -0.026 | inactive: 0.014 | inactive: 0.024 | inactive: -0.028

Taken from the listing for reference:
Target | log2 fold change [1] | log2 fold change (filanesib) | log2 fold change (zotarolimus) | log2 fold change (idasanutlin) | log2 fold change (alisertib) | log2 fold change [2] | log2 fold change (gefitinib) | log2 fold change [3] | log2 fold change (lapatinib) | log2 fold change (pictilisib) | log2 fold change [4] | log2 fold change (crizotinib) | log2 fold change [5] | log2 fold change [6] | log2 fold change (gandotinib) | log2 fold change [7] | log2 fold change (doramapimod) | log2 fold change (ispinesib) | log2 fold change (duvelisib) | log2 fold change (tozasertib)
XRCC6 (UniProt P12956) | inactive: 0.006 | inactive: -0.021 | inactive: 0.058 | inactive: -0.059 | inactive: -0.014 | inactive: -0.097 | inactive: -0.01 | inactive: -0.008 | inactive: 0.013 | inactive: -0.024 | inactive: 0.013 | inactive: -0.064 | inactive: 0.088 | inactive: -0.042 | inactive: -0.149 | inactive: 0.091 | inactive: -0.05 | inactive: -0.039 | – | –
YME1L1 (UniProt Q96TA2) | inactive: -0.079 | inactive: 0.013 | inactive: -0.065 | inactive: 0.021 | inactive: -0.047 | inactive: -0.014 | inactive: 0.008 | inactive: 0.037 | inactive: -0.022 | inactive: -0.042 | inactive: -0.021 | inactive: -0.019 | inactive: -0.008 | inactive: 0.017 | inactive: 0.015 | inactive: -0.024 | inactive: 0.003 | inactive: -0.139 | inactive: 0 | inactive: -0.015
